Measurements taken from patent US5935606A, “Reversing excitotoxic CNS damage by cellular implantation” (priority 1995, dated 1999).

System: NMDA receptors
Assay: [3H]CGP-39653 saturation binding, spinal cord membranes
Conditions: normal rat whole spinal cord
Description: Changes in NMDA receptor levels were determined at three weeks following nerve injury (one week following transplantation), as a marked distinction in responses to sensory stimuli between adrenal medullary and control transplanted animals can be made at this time point. […] [^3 H]CGP-39653 (D,L-(E)-2-amino-4-propyl-5-phosphono-3-pentenoate), a selective high-affinity competitive antagonist at NMDA receptors, was used to label the binding sites. In preliminary experiments, binding characteristics of this ligand were determined in the rat spinal cord. Saturation assays were performed on whole spinal cord tissue, and the results compared to those obtained in cortical membranes. NMDA binding sites were analyzed using previously described procedures with slight modification [M. A. Sills et al., Eur. J. Pharmacol., 192:19-24 (1991)]. Animals were decapitated and the spinal cords were rapidly extruded with saline pressure. […] This volume of tissue corresponded to approximately 110 μg of protein as determined using the Bradford method (BioRad, Richmond, Calif.). […] Nonspecific binding was determined in parallel tubes containing 100 mM L-glutamiate. […] Radioactivity was counted with a Beckman 3270 scintillation counter at 48-52% efficiency. Estimates of binding parameters were determined using the program LIGAND [P. J. Munson and D. Rodbard, Anal. Biochem., 197:220-239 (1980)].

With `CCC/C(=C\C(N)C(=O)O)CP(=O)(O)O` (racemic) [[^3 H]CGP-39653, D,L-(E)-2-amino-4-propyl-5-phosphono-3-pentenoate] the Bmax spinal cord was 224.9 +/-18.8 fmol/mg protein.
